According to article PMC10765763:
No constants are given. Whether binding was seen depends on the method and setting. In cells and extracts the contact can be indirect.

What was measured:
[1] = biological target: AKT (mouse (endogenous in hippocampus)); assay: co-IP; mouse hippocampal tissue lysates (3 mice in each group; control and CSDS 10 d), precleared with protein G or A beads, incubated with the appropriate antibody overnight at 4 °C, collected on protein A/G Plus-Agarose, immunoblotting; IgG as negative control
[2] = biological target: phosphatidylinositol 3-kinase (PI3K) (mouse (endogenous in hippocampus)); assay: as above

B1: nucleotide-binding oligomerization domain, leucine-rich repeat and pyrin domain-containing 1 (NLRP1) (protein, UniProt Q2LKU9 1-1182)
chain: MEESQSKQESSTKVAQHEGQEDVDPTFKTKKLMEVELMKHRVQLERNLKLRTFPGARTKQVKEALYPLLTWSSKSKNLFQNFTKLLLFKKLCQRGSENLVRESWYPCVPEEEAHMIDIQDLFGPNLGTQKKPQLVIIEGAAGIGKSTLARLVKRAWKEGKLYRNDFHHVFFFSCRELAQYEQLSLAELIVQGQEVPTAPIRQILSHPEKLLFILDGIDEPAWVLADQNPELCLHWSQTQPVHTLLGSLLGKSILPGASFLLTTRTTALQKFIPSLEQPCQVEVLGFTLFERKNYFYKYFGKKKGGVTTFTLVKSNSALLTLCEVPWVCWLVCTCLKKQMEQGGELSLTSQTTTALCLKYLSLTIPGQHMRTQLRDLCSLAAEGVCQRRTLFSESDLCKQGLDEHAIASFLKIGVLQKQASSLSYSFAHLCLQEFFAAMSYILDDSEERHADMKNDRIVETLVERYGRQNLFEAPTVRFLFGLLSKEELKKIEKLFSCSLHGKTKLKLLWHILGKSQPHQPPCLGLLHCLYENQDMELLTHVMHDLQGTIVPGPDDLAHTVLQTNVKHLVIQTDMDLMVVTFCIKFCCHVRSLQLNRKVQQGHKFTAPGMVLYRWTPITDASWKIFFSNLKLARNLEELDLSGNPLSYYAVHSLCTTLRKRGCQLKTLWLVECGLTSTYCSLLASVLSARSSLTELDLQLNDLGDGGVKMLCEGLRNPACNLSILWLDQASLSDQVIAELRTLEAKNPKLLISSTWKPHVMVPTMNMDKEEVGDSQALLKQQRQQSGDKHMEPLGTEDEFWGPTGPVTTEVVDRERNLYRVQLPMAGSYHCPSTGLHFVVTRAVTIEIEFCAWSQYLDKTPLQQSHMVVGPLFDIKAEQGAVTAVYLPHFVALQEGIVDSSLFHVAHFQEHGMVLETPARVEQHYAVLENPSFSPMGILLRMIPAVGHFIPITSTTLIYYHLYLEDVTFHLYLVPNDCSIRKAIDDEEMKFQFVRINKPPPVDALYLGSRYIVSSSKLVEIIPKELELCYRSPGESQLFSEIDIGHMDSEIKLQIKDKRHMNLKWEALLKPGDLRPALPKIATAPKDAPSLLHFMDQHREQLVARVTSVDPLLDKLHGLVLSEDSYEVVRSETTNQDKMRKLFSLSRSWSWDCKDQFYQALKETHPHLVMDILEKLGGVSVKS
B1 was tested, and the binding [1] was “no binding” and the binding [2] was “no binding”.
